Measured values published in patent publication US9517222B2, “Method for the treatment of senile dementia of the Alzheimer's type” (Phenomenome Discoveries Inc., priority 2007, dated 2016).
Where no unit stands, none is given here, and values compare only within one read-out.

Legend:
[1] = Serum ethanolamine phospholipid ratios to PtdEt 16:0/18:0 (M01) in human cohorts; conditions: for Ratio of M19 to M01 serum ratio between cohorts: males and females combined
[2] = Serum ethanolamine phospholipid levels in human cohorts (dementia severity, post-mortem pathology, age) by flow-injection MS/MS
[3] = serum, females, post mortem SDAT
[4] = serum, females, post mortem control

CC/C=C\C/C=C\C/C=C\C/C=C\C/C=C\C/C=C\CCC(=O)OC(CO/C=C\CCCCCCCCCCCCCC)COP(=O)(O)OCCN (centres unmarked) [Metabolite M19, Plasmenyl 16:0/22:6]
Ratio of M19 to M01 serum ratio between cohorts ([1]; 60-69 to 50-59): 0.75
Ratio of M19 to M01 serum ratio between cohorts ([1]; 70-95 to 50-59): 0.95
Ratio of M19 to M01 serum ratio between cohorts ([1]; 70-95 to 60-69): 1.26
Ratio of ethanolamine phospholipid ratios to M01 between cohorts ([1]; AD, All to CN, Male): 0.601
Ratio of ethanolamine phospholipid ratios to M01 between cohorts ([1]; ADAS 5-19 to CN, Male): 0.672
Ratio of M19 to M01 serum ratio between cohorts ([1]; ADAS 5-19 to CN): 0.74
Ratio of M19 to M01 serum ratio between cohorts ([1]; ADAS 20-39 to ADAS 5-19): 0.90
Ratio of ethanolamine phospholipid ratios to M01 between cohorts ([1]; ADAS 20-39 to CN, Male): 0.599
Ratio of M19 to M01 serum ratio between cohorts ([1]; ADAS 20-39 to CN): 0.66
Ratio of M19 to M01 serum ratio between cohorts ([1]; ADAS 40-70 to ADAS 5-19): 0.72
Ratio of M19 to M01 serum ratio between cohorts ([1]; ADAS 40-70 to ADAS 20-39): 0.80
Ratio of ethanolamine phospholipid ratios to M01 between cohorts ([1]; ADAS 40-70 to CN, Male): 0.456
Ratio of M19 to M01 serum ratio between cohorts ([1]; ADAS 40-70 to CN): 0.53
Ratio of M19 to M01 serum ratio between cohorts ([1]; CN to 50-59): 1.07
Ratio of M19 to M01 serum ratio between cohorts ([1]; CN to 60-69): 1.42
Average serum ethanolamine phospholipid ratio to M01, Mean ([1]; Cognitive Normal, Male, serum): 1.103
Ratio of M19 to M01 serum ratio between cohorts ([1]; SDAT to 50-59): 0.70
Ratio of M19 to M01 serum ratio between cohorts ([1]; SDAT to 70-95): 0.74
Ratio of M19 to M01 serum ratio between cohorts ([1]; SDAT to CN): 0.65
Average serum ethanolamine phospholipid ratio to M01, Mean ([1]; SDAT, ADAS 5-19, Male, serum): 0.740
Average serum ethanolamine phospholipid ratio to M01, Mean ([1]; SDAT, ADAS 20-39, Male, serum): 0.660
Average serum ethanolamine phospholipid ratio to M01, Mean ([1]; SDAT, ADAS 40-70, Male, serum): 0.503
Average serum ethanolamine phospholipid ratio to M01, Mean ([1]; SDAT_all, Male, serum): 0.663
Ethanolamine Phospholipid Ratio to M01, Mean, Age Ctl, 30-39, Female ([1]; human serum, females aged 30-39): 1.009
Ethanolamine Phospholipid Ratio to M01, Mean, Age Ctl, 40-49, Female ([1]; human serum, females aged 40-49): 0.902
Ethanolamine Phospholipid Ratio to M01, Mean, Age Ctl, 50-59, Female ([1]; human serum, females aged 50-59): 0.974
Ratio of Ethanolamine Phospholipid Ratio to M01, 50-59 vs. 40-49, Female ([1]; human serum, females aged 50-59 vs. females aged 40-49): 1.079
Ethanolamine Phospholipid Ratio to M01, Mean, Age Ctl, 60-69, Female ([1]; human serum, females aged 60-69): 0.716
Ratio of Ethanolamine Phospholipid Ratio to M01, 60-69 vs. 40-49, Female ([1]; human serum, females aged 60-69 vs. females aged 40-49): 0.794
Ethanolamine Phospholipid Ratio to M01, Mean, Age Ctl, 70+_Female ([1]; human serum, females aged 70+): 0.877
Ratio of Ethanolamine Phospholipid Ratio to M01, 70+ vs. 40-49, Female ([1]; human serum, females aged 70+ vs. females aged 40-49): 0.972
Ratio of Ethanolamine Phospholipid Ratio to M01, 50-59 vs. 40-49, Male ([1]; human serum, males aged 50-59 vs. males aged 40-49): 1.426
Ratio of Ethanolamine Phospholipid Ratio to M01, 60-69 vs. 40-49, Male ([1]; human serum, males aged 60-69 vs. males aged 40-49): 1.266
Ratio of Ethanolamine Phospholipid Ratio to M01, 70+ vs. 40-49, Male ([1]; human serum, males aged 70+ vs. males aged 40-49): 1.451
Ratio of ethanolamine phospholipid ratio to M01, ADAS 5-19 to CN, Female ([1]; serum, females, ADAS 5-19 vs cognitive normal): 0.813
Ratio of ethanolamine phospholipid ratio to M01, ADAS 20-39 to 5-19, Female ([1]; serum, females, ADAS 20-39 vs ADAS 5-19): 0.901
Ratio of ethanolamine phospholipid ratio to M01, ADAS 20-39 to CN, Female ([1]; serum, females, ADAS 20-39 vs cognitive normal): 0.733
Ratio of ethanolamine phospholipid ratio to M01, ADAS 40-70 to 5-19, Female ([1]; serum, females, ADAS 40-70 vs ADAS 5-19): 0.738
Ratio of ethanolamine phospholipid ratio to M01, ADAS 40-70 to 20-39, Female ([1]; serum, females, ADAS 40-70 vs ADAS 20-39): 0.819
Ratio of ethanolamine phospholipid ratio to M01, ADAS 40-70 to CN, Female ([1]; serum, females, ADAS 40-70 vs cognitive normal): 0.600
Ethanolamine phospholipid ratio to M01, Mean, SDAT, ADAS 5-19, Female ([1]; serum, females, SDAT ADAS 5-19): 0.728
Ethanolamine phospholipid ratio to M01, Mean, SDAT, ADAS 20-39, Female ([1]; serum, females, SDAT ADAS 20-39): 0.656
Ethanolamine phospholipid ratio to M01, Mean, SDAT, ADAS 40-70, Female ([1]; serum, females, SDAT ADAS 40-70): 0.537
Ratio of ethanolamine phospholipid ratio to M01, AD, All to CN, Female ([1]; serum, females, all AD vs cognitive normal): 0.709
Ethanolamine phospholipid ratio to M01, Mean, SDAT_all Female ([1]; serum, females, all SDAT): 0.634
Ratio of ethanolamine phospholipid ratio to M01, Autopsy AD vs. Control, Female ([1]; serum, females, autopsy AD vs post mortem control): 0.853
Ethanolamine phospholipid ratio to M01, Mean, Cognitive Normal, Female ([1]; serum, females, cognitive normal): 0.895
Ethanolamine phospholipid ratio to M01, Mean, Post Mortem SDAT Female [1, 3]: 0.180
Ethanolamine phospholipid ratio to M01, Mean, Post Mortem Ctl, Female [1, 4]: 0.211
Ratio of ethanolamine phospholipid ratio to M01, ADAS 20-39 to 5-19, Male ([1]; serum, males, SDAT ADAS 20-39 vs ADAS 5-19): 0.891
Ratio of ethanolamine phospholipid ratio to M01, ADAS 40-70 to 5-19, Male ([1]; serum, males, SDAT ADAS 40-70 vs ADAS 5-19): 0.679
Ratio of ethanolamine phospholipid ratio to M01, ADAS 40-70 to 20-39, Male ([1]; serum, males, SDAT ADAS 40-70 vs ADAS 20-39): 0.762
Ethanolamine phospholipid ratio to M01, Mean, Age Ctl, 30-39, Male ([1]; serum, males, age control 30-39): 0.725
Ethanolamine phospholipid ratio to M01, Mean, Age Ctl, 40-49, Male ([1]; serum, males, age control 40-49): 0.607
Ethanolamine phospholipid ratio to M01, Mean, Age Ctl, 50-59, Male ([1]; serum, males, age control 50-59): 0.865
Ethanolamine phospholipid ratio to M01, Mean, Age Ctl, 60-69, Male ([1]; serum, males, age control 60-69): 0.769
Ethanolamine phospholipid ratio to M01, Mean, Age Ctl, 70+_Male ([1]; serum, males, age control 70+): 0.881
Ethanolamine phospholipid ratio to M01, Mean, Post Mortem SDAT Male ([1]; serum, males, post mortem SDAT): 0.164
Ratio of ethanolamine phospholipid ratio to M01, SDAT vs Control (post mortem, males) ([1]; serum, males, post mortem SDAT vs post mortem control): 0.601
Ethanolamine phospholipid ratio to M01, Mean, Post Mortem Ctl, Male ([1]; serum, males, post mortem control): 0.273
Ratio of serum levels ([2]; AD, All to CN, Male): 0.611
Ratio of serum levels ([2]; ADAS 5-19 to CN, Male): 0.688
Ratio of serum levels ([2]; ADAS 20-39 to 5-19, Male): 0.866
Ratio of serum levels ([2]; ADAS 20-39 to CN, Male): 0.596
Ratio of serum levels ([2]; ADAS 40-70 to 5-19, Male): 0.642
Ratio of serum levels ([2]; ADAS 40-70 to 20-39, Male): 0.741
Ratio of serum levels ([2]; ADAS 40-70 to CN, Male): 0.442
Serum level, Mean ([2]; Cognitive Normal, Female): 0.103
Average serum level, Mean ([2]; Cognitive Normal, Male): 0.127
Serum level, Mean ([2]; Post Mortem Ctl, Male): 0.032
Serum level, Mean ([2]; Post Mortem SDAT Male): 0.014
Ratio of serum levels ([2]; Post mortem SDAT vs Control, Male): 0.452
Ratio of EtnPls 16:0/22:6 alone between cohorts ([2]; Post-Mortem SDAT to Control, males and females combined): 0.55
Serum level, Mean ([2]; SDAT, ADAS 5-19, Female): 0.079
Average serum level, Mean ([2]; SDAT, ADAS 5-19, Male): 0.088
Serum level, Mean ([2]; SDAT, ADAS 20-39, Female): 0.072
Average serum level, Mean ([2]; SDAT, ADAS 20-39, Male): 0.076
Serum level, Mean ([2]; SDAT, ADAS 40-70, Female): 0.063
Average serum level, Mean ([2]; SDAT, ADAS 40-70, Male): 0.056
Serum level, Mean ([2]; SDAT_all, Female): 0.071
Average serum level, Mean ([2]; SDAT_all, Male): 0.078
Ratio, ADAS 5-19 to CN, Female ([2]; serum level ratio, females, ADAS 5-19 vs CN): 0.768
Ratio, ADAS 20-39 to 5-19, Female ([2]; serum level ratio, females, ADAS 20-39 vs ADAS 5-19): 0.911
Ratio, ADAS 20-39 to CN, Female ([2]; serum level ratio, females, ADAS 20-39 vs CN): 0.699
Ratio, ADAS 40-70 to 5-19, Female ([2]; serum level ratio, females, ADAS 40-70 vs ADAS 5-19): 0.798
Ratio, ADAS 40-70 to 20-39, Female ([2]; serum level ratio, females, ADAS 40-70 vs ADAS 20-39): 0.875
Ratio, ADAS 40-70 to CN, Female ([2]; serum level ratio, females, ADAS 40-70 vs CN): 0.612
Ratio, 50-59 vs. 40-49, Female ([2]; serum level ratio, females, age 50-59 vs 40-49): 0.986
Ratio, 60-69 vs. 40-49, Female ([2]; serum level ratio, females, age 60-69 vs 40-49): 0.872
Ratio, 70+ vs. 40-49, Female ([2]; serum level ratio, females, age 70+ vs 40-49): 1.030
Ratio, AD, All to CN, Female ([2]; serum level ratio, females, all AD vs cognitively normal): 0.688
Ratio, Autopsy AD vs. Control, Female ([2]; serum level ratio, females, autopsy AD vs control): 0.635
Ratio, 50-59 vs. 40-49, Male ([2]; serum level ratio, males, age 50-59 vs 40-49): 1.484
Ratio, 60-69 vs. 40-49, Male ([2]; serum level ratio, males, age 60-69 vs 40-49): 1.540
Ratio, 70+ vs. 40-49, Male ([2]; serum level ratio, males, age 70+ vs 40-49): 1.789
Mean serum level, Age Ctl, 30-39, Female ([2]; serum, females, age 30-39): 0.107
Mean serum level, Age Ctl, 40-49, Female ([2]; serum, females, age 40-49): 0.100
Mean serum level, Age Ctl, 50-59, Female ([2]; serum, females, age 50-59): 0.099
Mean serum level, Age Ctl, 60-69, Female ([2]; serum, females, age 60-69): 0.087
Mean serum level, Age Ctl, 70+, Female ([2]; serum, females, age 70+): 0.103
Mean serum level, Post Mortem SDAT, Female [2, 3]: 0.022
Mean serum level, Post Mortem Ctl, Female [2, 4]: 0.035
Mean serum level, Age Ctl, 30-39, Male ([2]; serum, males, age 30-39): 0.086
Mean serum level, Age Ctl, 40-49, Male ([2]; serum, males, age 40-49): 0.063
Mean serum level, Age Ctl, 50-59, Male ([2]; serum, males, age 50-59): 0.094
Mean serum level, Age Ctl, 60-69, Male ([2]; serum, males, age 60-69): 0.098
Mean serum level, Age Ctl, 70+, Male ([2]; serum, males, age 70+): 0.114
